Laboratory results published in PubChem BioAssay AID1794845 (National Center for Advancing Translational Sciences (NCATS), 2023).
Out of some 6,900 compounds screened, fewer than 10 were called active. Calls come from the whole dose curve; as a rule, active = well fitted curve in the direction sought with a large enough effect; inconclusive = small, poorly fitted or top-dose-only effect, or another doubt; inactive = no such curve, though single readings can be large or run the other way. Some of the results follow.

The chains behind the UniProt entries cited, without tags or fusion partners. Where a name states a change or a piece, a line headed by the entry shows the natural chain unless it says otherwise.
UniProt C7C422: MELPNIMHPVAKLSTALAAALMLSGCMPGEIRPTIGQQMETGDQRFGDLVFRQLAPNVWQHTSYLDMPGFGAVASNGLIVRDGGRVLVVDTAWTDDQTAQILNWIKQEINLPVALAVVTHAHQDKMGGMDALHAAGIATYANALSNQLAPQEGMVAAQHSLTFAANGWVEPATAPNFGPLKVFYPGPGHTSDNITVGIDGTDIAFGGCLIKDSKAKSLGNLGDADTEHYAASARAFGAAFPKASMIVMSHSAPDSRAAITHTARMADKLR

target: Metallo-beta-lactamase type 2 (Klebsiella pneumoniae) (UniProt C7C422); assay: qHTS to identify inhibitors of the New Delhi Metallo-beta-lactamase (NDM): primary screen against the NCATS Gemini Collection; settings: NDM-1 enzyme, meropenem hydrolysis, absorbance 300 nm; at 38.4 µM (top of the series) unless noted; note: % of control where 0% means no effect
How it was run: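 NDM-1 at 2 nM final in 50 mM HEPES pH 7.0, 1 uM ZnSO4, 0.01% Tween20, preincubated >30 min with compound. Meropenem 50 uM final added; absorbance at 300 nm after 30 min.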

Activity % (negative = inhibition), inactive:
Cc1ccc(CN2C[C@]34C=C[C@H](O3)C(C(=O)N(C)Cc3ccsc3)C4C2=O)cc1C (some centres undefined) 7.02%
COc1ccc2cc(C(=O)N3CC4CC(C3)[C@H]3CCCC(=O)N3C4)[nH]c2c1 (some centres undefined) 6.69%
O=C1CCC2(CCN1Cc1ccccc1)CCN(C(=O)c1ccccc1F)CC2 -3.97%
CCCC(C)c1c(-c2ccccc2)ncn1CCNC(C)=O (centres undefined) -12.7%
CNC(=O)c1cc(C)nc2onc(C3CCN(C(=O)C4CCCC4)CC3)c12 44.3%
O=C1[C@@H]2C[C@@H](CN2Cc2ccc3c(c2)OCO3)Oc2ccccc2N1CC1CC1 -0.153% [at 57.5 µM]
O=C(c1cc(-c2ccsc2)c2nncn2n1)N1CCN(Cc2ccccc2)CC1 5%
Cc1sc2ccn(CC(C)C)c(=O)c2c1C(=O)N1CCCCC1 15.1%
CCc1cccc2c(C(CC(=O)N3CCCC3)c3cccc([N+](=O)[O-])c3)c[nH]c12 (centres undefined) 12.5%
O=C(NCc1ccc(Cl)nc1)c1cn2c(n1)CN(C(=O)c1cccnc1)CC2 0.44%
CCNc1ncc(C(=O)N[C@H](c2cnn(C)c2)C2CC(O)C2)cn1 (some centres undefined) 0.953%
Cn1cc(CCNC(=O)c2ccc3oc(-c4cccc(F)c4)nc3c2)cn1 -1.23%
COc1cccc(N2C(=O)NC(=NC3CCCC3)C23CCN([S+](=O)([O-])c2cccs2)C3)c1 (centres undefined) 0.0013%
CC(C)c1nc2c(NC(=O)Nc3cccc(Cl)c3)cccn2n1 -3.16%
O=C(NCC1CC1)C1CN(Cc2ccccc2)C(=O)N1 (centres undefined) 59.1% [at 57.5 µM]
COc1ccc(-c2nc3c(c(=O)[nH]2)CCN(C(=O)CSc2ccccc2)C3)cc1 7.61%
Cc1nnc2ccc(N3CCC(NC(=O)C(C)C)CC3)nn12 12.7% [at 57.5 µM]
O=C(COc1ccc(-c2nnc3n2CCCC3)cc1)NCc1ccccc1Br 4.26%
O=C(CCn1cncn1)N1CCc2ncnc(N3CC=CC3)c2CC1 -0.0366%
COc1ccc(CN2CC3(CCN(S(=O)(=O)c4c(C)nn(C)c4C)CC3)C2=O)cc1 0.469%
CCN1C(=O)CN(C(=O)CC(C)C)CC12CCOCC2 5.72%
O=C(C1CCN([S+](=O)([O-])c2cccs2)C1)N1CCC(c2nc3ncccc3[nH]2)CC1 (centres undefined) 0.749%
O=C(NCc1nnc2c(-c3nc(C4CC4)no3)cccn12)C1CC1 2.02%
Cc1nnc(-c2cc(-c3ccsc3)ccn2)n1-c1ccccc1 20.3% [at 57.5 µM]
CCNC(=O)N1CC(C(=O)NCc2ccco2)CC(c2ccc(OC)c(OC)c2)C1 (centres undefined) 0.709%
COc1ccccc1CN[C@H]1[C@H](O)[C@@H](N2CCN(c3ccccc3OC)CC2)[C@@H]2OC[C@H]1O2 -5.23%
COc1cccc(C(C)N(C)Cc2nc(-c3cccs3)no2)c1 (centres undefined) -5.01%
c1cncc(CN2CC(N3CCc4ccccc43)C2)c1 3.81% [at 57.5 µM]
COCCCn1c(C)cc(C(=O)N[C@@H]2CN(C)C[C@H]2CN(C)C)c1C 2.71%
COc1ccc(-c2ccc3nc(-c4cccc(F)c4)oc3c2)c(OC)c1OC 7.5%
Cc1cccc(OC2(C(=O)O)CCN(c3cncc(C(N)=O)n3)CC2)c1 1.97%
CC(C)CCN(C1CCOCC1)C1CCN(Cc2cccnc2)CC1 9.22%
CNc1nc(C(=O)N2CCc3nc(-c4ccccc4)[nH]c3C2)cs1 13.6%
Cc1noc(C)c1C(=O)N(C)C1CCc2nnc(C)n2CC1 (centres undefined) -6.56%
CNC(=O)[C@@H]1CCCC[C@@H]1C(=O)N1CCn2nc(Cc3ccccc3)cc2C1 5.96%
COc1ccc(CCNC(=O)c2c(C)noc2-c2cccs2)cc1OC 20.6%
O=C(c1nccc2ccccc12)N1CCC2(CC1)CC(O)CCO2 (centres undefined) 2.48%
CC(C)NS(=O)(=O)c1ccc2c(c1)nc(-c1ccc(CO)o1)n2C(C)C 34.2%
O=C1CC2(CCN(CC3CCCCC3)CC2)Oc2ccccc2N1c1ccccc1 15.1%
O=C(CCC1CCCN(Cc2ccc(-c3ccccc3)cc2)C1)N1CCOCC1 (centres undefined) -0.619%
COCCN1CC2CN(C(=O)c3ccc(Cc4c(C)noc4C)o3)CC(C1)O2 24.8%
COCC(=O)N[C@H]1C[C@@H](CO)N(Cc2ccc(Br)o2)C1 7.75%
O=C(c1cccc(OC2CN(C3CCCCCC3)C2)c1)N1CCCC1 14.1%
CC(C)NC(=O)N1CCNC[C@@H]1C(=O)N[C@@H](CC1CCCCC1)C(N)=O 2.75% [at 57.5 µM]
C=CCC1(C(=O)O)CCCN(C(=O)c2cnn3c2CCCC3)C1 (centres undefined) 3.76%
CCCc1nn(-c2cccc(C)c2)c(=O)n1CC(=O)NCc1ccc(C)o1 -1.66%
COc1ccc(C(=O)N2CCOC[C@H](Oc3cccnc3)C2)cc1 4.61% [at 57.5 µM]
Cc1ccc(CN2CCCCCNC(=O)[C@@H]3CCC[C@@H]32)s1 3.28%
N#Cc1ccc(C(=O)N2CCN3CCS(=O)(=O)N(C4CC4)C(=O)C3C2)cc1 (centres undefined) 2.59%
COC(=O)NC1CCN(c2ccc3nnc(-c4ccccc4)n3n2)C1 (centres undefined) 2%
CC(C)(Oc1nn(CC2CCOCC2)c2ccccc12)C(=O)NCc1ccncc1 6.15% [at 57.5 µM]
c1cncc(-c2cc(-c3cccc(N4CCOCC4)c3)cn3cncc23)c1 10.5% [at 57.5 µM]
CC(C)(C)c1ccc(-c2cc(C[C@H]3CNCC[C@H]3CC(=O)N3CCOCC3)no2)cc1 -0.949% [at 57.5 µM]
COc1ncccc1CNC[C@H]1O[C@@H]2C[C@@H](CC(=O)N3CCOCC3)O[C@@H]2[C@@H]1O 9.82% [at 57.5 µM]
CC(C)S(=O)(=O)N(C)Cc1cccc(N2CCN(C(=O)c3c(Cl)cccc3Cl)CC2)c1F -0.563%
Cn1ccnc1CNC[C@H]1Cn2cc(-c3ccccc3)nc2CO1 44.2% [at 57.5 µM]
O=S(=O)(c1ccccc1)N1CCCC(CN2CCCC2)CC1 (centres undefined) 14.1%
NC(=O)NCC(=O)N1CCC2(CCCN(CCCc3ccccc3)C2)C1 (centres undefined) -1.71%
COc1ccc2c(c1)c(CN1CCOCCNC(=O)CC1)cn2C -4.71%
O=C(NC1CC(c2nnc(CO)n2C2CC2)C1)c1cccn2cnnc12 (centres undefined) 6.45%
CC(=O)N1CCN(c2ccnc(-c3nnc(C)n3C3CCCCC3)c2)CC1 7.58% [at 57.5 µM]
CN1C[C@H](O)C[C@H]1c1nnc2n1CCN(C(=O)Cc1cccc(F)c1)CC2 22.2%
COc1ccc(C(=O)N2CC[C@@H](CC(=O)O)[C@@H](CCN3CCC[C@H]3C(N)=O)C2)cc1 16.3% [at 57.5 µM]
Cc1nc(CN2CCN(c3nccc(-c4cccnc4)n3)CC2)cs1 7.35%
O=C(NCc1ccc(F)cc1)[C@@H]1C[C@@H](c2cccc(C(F)(F)F)c2)N(CC2CCOCC2)C1 4.15%
O=C(c1ccccn1)N1CCCC2(CNc3ccccc3[S+](=O)([O-])N2)C1 (centres undefined) 27.6%
O=C1NCCN1C1CCN(Cc2cccnc2)CC1 -2% [at 57.5 µM]
CCC(c1cccs1)N1C(=O)[C@H]2CN(S(=O)(=O)c3ccccc3F)C[C@H]2C1=O (some centres undefined) 9.97%
COCc1nc2nc(-c3ccccc3)c(-c3ccc(O)c(F)c3)cc2n1C 9.05% [at 57.5 µM]
Cc1ccc(C(C(=O)O)N2CCC(C(=O)N3CCCC3)CC2)c(C)c1 (centres undefined) -7.75%
CC(=O)N1CCCCN(C(=O)c2cc(-c3ccccc3C(F)(F)F)nc3c2cnn3C)C1 6.36%
OC1(CN2CCCCC2)CCN(Cc2cnn(-c3ccccc3Cl)c2)C1 (centres undefined) -2.02%
O=C(c1ccc2c(c1)[nH]c(=O)n2C1CCC(O)CC1)N1CCOCC(O)C1 (centres undefined) 3.21%
CNC(=O)c1noc(CNC(=O)C(c2cccc(F)c2)N(C)C)n1 (centres undefined) 0.506%
O=C(Nc1ccccc1)N1CCC(N2CCCNC2=O)CC1 10.9% [at 57.5 µM]
Cc1ccc(CN2CCn3c(nn(-c4ccncc4)c3=O)C2)cc1 8.45% [at 57.5 µM]
Cn1cccc1CN1C[C@@H](CO)[C@H](c2ccncc2)C1 -3.1%
CN(Cc1cn(-c2ccccc2)nn1)Cc1noc2c1CCCC2 0.973%
CC(C)Oc1ccc(C(=O)N2Cc3cnn(Cc4ccc(F)cc4)c3C2)cc1 -4.58%
CN(CCc1cn[nH]c1)C(=O)C1CCN(C(=O)C2CCC2)CC1 10.5%
O=C(NCc1ccccc1)c1ccc(-c2ccc(N3CCSCC3)nc2)cc1 9.54%
CCNC(=O)N1CC[C@H]2CC(=O)N([C@H](C(N)=O)C(C)C)CC[C@H]2C1 10.7% [at 57.5 µM]
COc1ncccc1-c1nc(-c2c(C)noc2C)cc2cc(CN(C)C)oc12 9.2% [at 57.5 µM]
O=C(Nc1cccc(C(F)(F)F)c1)N[C@H]1[C@H](O)[C@@H](Oc2ccccc2)[C@@H]2OC[C@H]1O2 -0.184% [at 57.5 µM]

Sorted by molecular weight (rising): part of the list above
Activity % (negative = inhibition), inactive:
Cc1nnc2ccc(N3CCC(NC(=O)C(C)C)CC3)nn12 12.7% [at 57.5 µM]
O=S(=O)(c1ccccc1)N1CCCC(CN2CCCC2)CC1 (centres undefined) 14.1%
O=C(NCc1nnc2c(-c3nc(C4CC4)no3)cccn12)C1CC1 2.02%
COc1cccc(C(C)N(C)Cc2nc(-c3cccs3)no2)c1 (centres undefined) -5.01%
Cc1sc2ccn(CC(C)C)c(=O)c2c1C(=O)N1CCCCC1 15.1%
O=C(CCn1cncn1)N1CCc2ncnc(N3CC=CC3)c2CC1 -0.0366%
